# From patent US9963451B2, “Fused ring pyrimidine compound and pest control agent containing the same” (Mitsui Chemicals Agro, Inc., priority 2013, dated 2018)
# Some of these results come from one statement about several compounds together.
# Columns and labels:
# Format in all cases: in vivo
# Spodopteta litura = assay: Test Example 6: insecticidal test against Spodopteta litura (cabbage leaf dip); conditions: concentration of 1000 ppm, 2-stage larvae, 25° C., after 6 days
# Myzus persicae = assay: Test Example 2: insecticidal test against Myzus persicae (root immersion and leaf spray of young white radish plant); conditions: 100 ppm root immersion and 1000 ppm leaf spray, 1-stage larvae, 25° C., after 5 days
# Laodelphax striatellus = assay: Test Example 1: insecticidal test against Laodelphax striatellus (root immersion and leaf spray of young rice plant); conditions: 100 ppm root immersion and 1000 ppm leaf spray, 25° C., after 6 days
# Ctenocephalides felis = assay: Test Example 7: insecticidal test against Ctenocephalides felis (treated filter paper contact); conditions: 50 μg/cm^2 on filter paper, adults, examination after 72 hours
SMILES,insect death ratio (Spodopteta litura) [%],insect death ratio (Myzus persicae) [%],insect death ratio (Laodelphax striatellus) [%],insect death ratio (Ctenocephalides felis) [%]
COCc1cc(=O)n2nc(SC)nc2n1Cc1ccc(Cl)nc1 [compound 191],≥ 70,–,–,–
CSc1cc2n(Cc3ccc(Cl)nc3)c(C)c(C)c(=O)n2n1 [compound 236],≥ 70,≥ 70,≥ 70,–
"Cc1cc(=O)n2nc(S(C)(=O)=O)nc2n1Cc1ccc(Cl)nc1 [compound 10, 4-((6-chloropyridin-3-yl)methyl)-5-methyl-2-(methylsulfonyl)-[1,2,4]triazolo[1,5-a]pyrimidin-7(4H)-one]",–,–,≥ 70,≥ 50
Cc1cc(=O)n2nc(C(F)F)cc2n1Cc1ccc(Cl)nc1 [compound 241],≥ 70,≥ 70,≥ 70,–
CSc1cc2n(Cc3ccc(Cl)nc3)c(C)c(F)c(=O)n2n1 [compound 237],≥ 70,≥ 70,≥ 70,–
Cc1cc(=O)n2nc(C(C)(F)F)cc2n1Cc1ccc(Cl)nc1 [compound 242],≥ 70,≥ 70,≥ 70,–
"COc1nc2n(Cc3ccc(Cl)nc3)c(C)cc(=O)n2n1 [compound 45, 4-((6-chloropyridin-3-yl)methyl)-2-methoxy-5-methyl-[1,2,4]triazolo[1,5-a]pyrimidin-7(4H)-one]",–,≥ 70,≥ 70,≥ 50
Cc1cc(=O)n2nc(Br)cc2n1Cc1ccc(Cl)nc1 [compound 329],–,≥ 70,≥ 70,–
CCc1cc2n(Cc3ccc(Cl)nc3)ccc(=O)n2n1 [compound 225],–,≥ 70,≥ 70,–
Cc1cc(=O)n2nc(C(F)(F)F)cc2n1Cc1cnc(Cl)cc1Cl [compound 248],–,≥ 70,≥ 70,–
CSc1nc2n(Cc3ccc(Cl)nc3)c(C)c(F)c(=O)n2n1 [compound 6],–,≥ 70,≥ 70,–
CSc1nc2n(Cc3cnc(Cl)c(Cl)c3)c(C)cc(=O)n2n1 [compound 40],–,≥ 70,≥ 70,–
CSc1cc2n(Cc3ccc(C)nc3)c(C)cc(=O)n2n1 [compound 223],–,≥ 70,≥ 70,–
CCc1nc2n(Cc3ccc(Cl)nc3)c(C)cc(=O)n2n1 [compound 30],–,≥ 70,≥ 70,–
Cc1cc(=O)n2nc(C(C)(F)F)nc2n1Cc1ccc(Cl)nc1 [compound 59],–,≥ 70,≥ 70,–
COC(=O)COc1nc2n(Cc3ccc(Cl)nc3)c(C)cc(=O)n2n1 [compound 117],–,≥ 70,≥ 70,–
Cc1cc(=O)n2nc(C(F)F)nc2n1Cc1ccc(Cl)nc1 [compound 57],–,≥ 70,≥ 70,–
CSc1cc2n(C(C)c3ccc(Cl)nc3)c(C)cc(=O)n2n1 (centres unmarked) [compound 175],–,≥ 70,≥ 70,–
Cc1cc(=O)n2nc(C(=O)N3CCCCC3)nc2n1Cc1ccc(Cl)nc1 [compound 35],–,≥ 70,≥ 70,–
CO/N=c1\cc(C)n(Cc2ccc(Cl)nc2)c2nc([S+](C)[O-])nn12 (centres unmarked) [compound 120],–,≥ 70,≥ 70,–
CCS(=O)(=O)c1nc2n(Cc3ccc(Cl)nc3)c(C)cc(=O)n2n1 [compound 187],–,≥ 70,≥ 70,–
Cc1cc(=O)n2nc(C(C)(C)C)cc2n1Cc1ccc(Cl)nc1 [compound 155],–,≥ 70,≥ 70,–
Cc1cc(=O)n2nc(S(C)(=O)=O)cc2n1Cc1ccc(Cl)nc1 [compound 161],–,≥ 70,≥ 70,–
